Assay results published in publication PMC11020354.
No constants are given. Whether binding was seen depends on the method and setting. In cells and extracts the contact can be indirect. Some binding calls cover weakened binding; strength is not graded here.

Chains of the proteins cited; added tags and fusions are not shown.
UniProt P10111: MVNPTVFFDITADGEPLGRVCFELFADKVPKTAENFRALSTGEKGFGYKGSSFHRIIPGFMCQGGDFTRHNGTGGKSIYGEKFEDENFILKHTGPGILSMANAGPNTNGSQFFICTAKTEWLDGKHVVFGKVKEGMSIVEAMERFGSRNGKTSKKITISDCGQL
UniProt F1M707: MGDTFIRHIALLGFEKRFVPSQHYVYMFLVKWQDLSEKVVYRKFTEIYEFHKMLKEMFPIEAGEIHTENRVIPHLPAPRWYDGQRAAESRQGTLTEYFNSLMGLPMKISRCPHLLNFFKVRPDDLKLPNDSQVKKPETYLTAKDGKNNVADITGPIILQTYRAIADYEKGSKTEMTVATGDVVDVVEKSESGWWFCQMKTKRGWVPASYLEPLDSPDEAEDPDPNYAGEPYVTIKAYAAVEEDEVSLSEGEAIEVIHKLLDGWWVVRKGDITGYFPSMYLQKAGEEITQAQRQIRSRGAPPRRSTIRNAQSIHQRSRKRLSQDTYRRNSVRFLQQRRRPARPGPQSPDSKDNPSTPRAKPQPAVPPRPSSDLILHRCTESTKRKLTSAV

Target: Cyclophilin A (rat (endogenous in H9c2)) (UniProt P10111)
Assay: co-IP; anti-CyPA antibody on Protein A + G magnetic beads, H9c2 lysate incubated overnight at 4 °C, Western blot for p47phox; cells with or without PA treatment and with or without circ_005077 overexpression

Substance: p47PHOX (from UniProt F1M707 1-389)
- binding: binds
